Measurements published in the supplement of paper PMC12067093, “Discovery and optimisation of a covalent ligand for TRIM25 and its application to targeted protein ubiquitination” (Chemical Science, 2025).
Some of the results follow.

Amino acid sequences for entries named in this document (tags omitted). A change or cut given only in a name is not applied to a line headed by its entry.
UniProt O94979: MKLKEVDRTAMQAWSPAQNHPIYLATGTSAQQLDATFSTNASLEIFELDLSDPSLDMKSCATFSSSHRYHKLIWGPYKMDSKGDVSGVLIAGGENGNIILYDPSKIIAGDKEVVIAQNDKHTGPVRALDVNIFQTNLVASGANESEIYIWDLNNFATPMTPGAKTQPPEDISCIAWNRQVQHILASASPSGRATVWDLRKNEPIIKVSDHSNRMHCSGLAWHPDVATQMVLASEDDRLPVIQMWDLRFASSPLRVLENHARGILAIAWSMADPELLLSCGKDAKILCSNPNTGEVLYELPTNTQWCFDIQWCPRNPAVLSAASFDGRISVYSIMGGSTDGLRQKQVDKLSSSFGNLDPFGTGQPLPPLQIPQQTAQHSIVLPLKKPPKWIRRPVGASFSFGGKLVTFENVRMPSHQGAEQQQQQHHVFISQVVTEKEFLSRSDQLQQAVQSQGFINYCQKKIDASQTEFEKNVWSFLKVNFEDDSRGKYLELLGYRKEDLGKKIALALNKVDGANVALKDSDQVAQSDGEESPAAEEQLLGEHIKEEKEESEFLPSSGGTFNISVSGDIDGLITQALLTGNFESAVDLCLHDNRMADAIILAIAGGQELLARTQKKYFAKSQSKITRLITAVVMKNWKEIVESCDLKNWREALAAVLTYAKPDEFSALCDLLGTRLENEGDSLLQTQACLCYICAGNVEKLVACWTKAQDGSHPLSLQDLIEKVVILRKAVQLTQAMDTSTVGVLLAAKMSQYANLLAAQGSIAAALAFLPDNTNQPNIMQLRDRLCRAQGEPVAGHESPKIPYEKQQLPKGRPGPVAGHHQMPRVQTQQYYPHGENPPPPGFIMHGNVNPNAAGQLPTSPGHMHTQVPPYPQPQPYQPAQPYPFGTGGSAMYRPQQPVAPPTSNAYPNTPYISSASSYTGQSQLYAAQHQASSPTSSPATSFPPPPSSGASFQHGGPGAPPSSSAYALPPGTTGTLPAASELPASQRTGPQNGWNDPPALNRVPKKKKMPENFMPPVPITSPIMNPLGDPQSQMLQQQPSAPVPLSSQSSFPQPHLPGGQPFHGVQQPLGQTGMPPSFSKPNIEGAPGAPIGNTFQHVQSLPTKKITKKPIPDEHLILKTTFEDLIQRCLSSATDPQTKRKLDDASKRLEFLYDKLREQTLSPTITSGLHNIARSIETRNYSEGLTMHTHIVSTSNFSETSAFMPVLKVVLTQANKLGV
UniProt P61619, whole entry, looked up: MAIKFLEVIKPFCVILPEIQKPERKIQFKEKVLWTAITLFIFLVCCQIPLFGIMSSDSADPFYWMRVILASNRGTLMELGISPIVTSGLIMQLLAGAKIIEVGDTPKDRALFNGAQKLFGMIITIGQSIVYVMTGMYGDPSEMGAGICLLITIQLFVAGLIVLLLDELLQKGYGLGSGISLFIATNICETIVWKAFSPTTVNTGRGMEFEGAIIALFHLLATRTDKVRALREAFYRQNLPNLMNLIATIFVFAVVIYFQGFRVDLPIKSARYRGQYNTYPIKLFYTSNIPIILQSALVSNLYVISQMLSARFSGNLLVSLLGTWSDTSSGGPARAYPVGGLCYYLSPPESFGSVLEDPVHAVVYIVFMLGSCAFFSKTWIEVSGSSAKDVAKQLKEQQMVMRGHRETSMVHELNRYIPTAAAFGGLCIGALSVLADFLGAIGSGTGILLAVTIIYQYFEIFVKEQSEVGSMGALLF
UniProt A3KN83: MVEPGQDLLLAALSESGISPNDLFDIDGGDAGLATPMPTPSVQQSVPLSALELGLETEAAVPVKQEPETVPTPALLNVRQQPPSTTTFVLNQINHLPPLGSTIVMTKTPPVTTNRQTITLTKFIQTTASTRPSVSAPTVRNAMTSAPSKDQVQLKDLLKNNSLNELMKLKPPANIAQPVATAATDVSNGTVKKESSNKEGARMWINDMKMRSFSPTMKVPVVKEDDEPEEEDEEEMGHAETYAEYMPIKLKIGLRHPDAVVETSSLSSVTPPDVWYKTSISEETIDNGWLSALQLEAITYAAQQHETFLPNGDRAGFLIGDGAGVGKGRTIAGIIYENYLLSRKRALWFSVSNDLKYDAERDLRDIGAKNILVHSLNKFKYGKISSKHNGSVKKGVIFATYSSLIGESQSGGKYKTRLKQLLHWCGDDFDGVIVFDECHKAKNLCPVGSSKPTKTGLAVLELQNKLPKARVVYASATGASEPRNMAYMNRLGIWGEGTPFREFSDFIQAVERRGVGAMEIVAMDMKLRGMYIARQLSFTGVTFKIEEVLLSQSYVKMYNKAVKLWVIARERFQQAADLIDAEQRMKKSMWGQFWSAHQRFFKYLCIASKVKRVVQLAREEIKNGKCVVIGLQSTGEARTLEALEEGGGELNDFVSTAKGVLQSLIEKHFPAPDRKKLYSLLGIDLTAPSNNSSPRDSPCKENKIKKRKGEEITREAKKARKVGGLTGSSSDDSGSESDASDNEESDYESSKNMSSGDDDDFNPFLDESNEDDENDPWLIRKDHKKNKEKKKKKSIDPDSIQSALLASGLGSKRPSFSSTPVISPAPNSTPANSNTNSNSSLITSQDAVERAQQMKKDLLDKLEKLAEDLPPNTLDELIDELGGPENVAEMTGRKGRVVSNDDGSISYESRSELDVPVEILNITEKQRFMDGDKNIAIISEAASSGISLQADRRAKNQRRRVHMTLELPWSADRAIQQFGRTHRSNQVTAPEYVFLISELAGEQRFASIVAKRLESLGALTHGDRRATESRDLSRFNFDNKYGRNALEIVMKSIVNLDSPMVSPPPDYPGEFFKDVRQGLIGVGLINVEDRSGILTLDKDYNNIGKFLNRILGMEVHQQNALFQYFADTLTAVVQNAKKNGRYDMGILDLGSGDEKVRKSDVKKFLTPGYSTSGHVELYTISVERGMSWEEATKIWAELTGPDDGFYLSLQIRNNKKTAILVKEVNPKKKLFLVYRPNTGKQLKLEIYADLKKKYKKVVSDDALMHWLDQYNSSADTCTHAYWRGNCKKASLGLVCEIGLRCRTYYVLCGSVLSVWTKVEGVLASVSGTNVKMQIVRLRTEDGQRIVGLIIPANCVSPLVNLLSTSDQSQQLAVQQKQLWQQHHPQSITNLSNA
UniProt P20132: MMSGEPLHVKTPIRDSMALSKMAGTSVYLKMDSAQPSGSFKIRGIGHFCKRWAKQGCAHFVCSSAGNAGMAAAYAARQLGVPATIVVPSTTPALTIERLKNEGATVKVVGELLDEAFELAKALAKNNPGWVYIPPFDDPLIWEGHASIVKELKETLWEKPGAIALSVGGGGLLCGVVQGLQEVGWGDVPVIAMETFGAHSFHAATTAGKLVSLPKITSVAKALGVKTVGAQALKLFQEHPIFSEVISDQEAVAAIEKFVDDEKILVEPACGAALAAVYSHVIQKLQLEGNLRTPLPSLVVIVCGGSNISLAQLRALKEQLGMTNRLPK
UniProt Q15020: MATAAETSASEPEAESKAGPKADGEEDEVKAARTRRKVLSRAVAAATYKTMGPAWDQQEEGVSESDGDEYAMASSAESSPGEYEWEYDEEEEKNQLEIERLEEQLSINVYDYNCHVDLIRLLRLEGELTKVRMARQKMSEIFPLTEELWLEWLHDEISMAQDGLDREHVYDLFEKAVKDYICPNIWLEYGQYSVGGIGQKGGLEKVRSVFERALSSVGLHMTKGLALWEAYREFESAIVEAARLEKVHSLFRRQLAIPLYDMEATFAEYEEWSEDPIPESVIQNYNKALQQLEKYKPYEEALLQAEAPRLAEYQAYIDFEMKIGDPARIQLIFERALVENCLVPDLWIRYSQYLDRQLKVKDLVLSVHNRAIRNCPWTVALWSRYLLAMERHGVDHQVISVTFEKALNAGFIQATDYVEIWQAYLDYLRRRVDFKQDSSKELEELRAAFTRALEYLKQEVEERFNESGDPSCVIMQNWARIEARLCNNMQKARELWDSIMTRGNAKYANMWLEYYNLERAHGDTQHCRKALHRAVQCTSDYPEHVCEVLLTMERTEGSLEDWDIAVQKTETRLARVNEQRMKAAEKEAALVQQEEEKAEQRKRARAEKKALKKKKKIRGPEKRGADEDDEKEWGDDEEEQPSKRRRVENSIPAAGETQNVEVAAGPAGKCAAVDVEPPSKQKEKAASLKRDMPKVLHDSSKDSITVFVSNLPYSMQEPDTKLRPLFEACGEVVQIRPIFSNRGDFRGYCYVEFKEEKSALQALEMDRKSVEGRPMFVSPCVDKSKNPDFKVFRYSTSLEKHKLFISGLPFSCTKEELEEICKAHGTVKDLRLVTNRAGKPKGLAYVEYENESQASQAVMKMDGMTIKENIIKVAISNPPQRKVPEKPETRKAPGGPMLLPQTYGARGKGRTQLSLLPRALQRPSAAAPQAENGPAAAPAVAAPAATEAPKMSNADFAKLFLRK
UniProt Q96I15: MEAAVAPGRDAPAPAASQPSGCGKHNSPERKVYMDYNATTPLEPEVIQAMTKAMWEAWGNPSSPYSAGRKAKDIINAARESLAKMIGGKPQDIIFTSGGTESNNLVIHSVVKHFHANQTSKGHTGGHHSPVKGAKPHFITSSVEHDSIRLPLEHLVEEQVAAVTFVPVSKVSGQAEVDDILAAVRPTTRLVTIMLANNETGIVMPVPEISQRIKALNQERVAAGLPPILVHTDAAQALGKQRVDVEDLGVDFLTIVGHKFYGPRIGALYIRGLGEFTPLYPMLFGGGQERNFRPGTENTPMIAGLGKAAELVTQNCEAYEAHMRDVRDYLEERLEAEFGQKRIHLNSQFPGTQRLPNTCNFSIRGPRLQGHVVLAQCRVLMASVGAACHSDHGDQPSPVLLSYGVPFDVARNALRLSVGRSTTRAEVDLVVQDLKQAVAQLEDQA
UniProt Q9UBV2: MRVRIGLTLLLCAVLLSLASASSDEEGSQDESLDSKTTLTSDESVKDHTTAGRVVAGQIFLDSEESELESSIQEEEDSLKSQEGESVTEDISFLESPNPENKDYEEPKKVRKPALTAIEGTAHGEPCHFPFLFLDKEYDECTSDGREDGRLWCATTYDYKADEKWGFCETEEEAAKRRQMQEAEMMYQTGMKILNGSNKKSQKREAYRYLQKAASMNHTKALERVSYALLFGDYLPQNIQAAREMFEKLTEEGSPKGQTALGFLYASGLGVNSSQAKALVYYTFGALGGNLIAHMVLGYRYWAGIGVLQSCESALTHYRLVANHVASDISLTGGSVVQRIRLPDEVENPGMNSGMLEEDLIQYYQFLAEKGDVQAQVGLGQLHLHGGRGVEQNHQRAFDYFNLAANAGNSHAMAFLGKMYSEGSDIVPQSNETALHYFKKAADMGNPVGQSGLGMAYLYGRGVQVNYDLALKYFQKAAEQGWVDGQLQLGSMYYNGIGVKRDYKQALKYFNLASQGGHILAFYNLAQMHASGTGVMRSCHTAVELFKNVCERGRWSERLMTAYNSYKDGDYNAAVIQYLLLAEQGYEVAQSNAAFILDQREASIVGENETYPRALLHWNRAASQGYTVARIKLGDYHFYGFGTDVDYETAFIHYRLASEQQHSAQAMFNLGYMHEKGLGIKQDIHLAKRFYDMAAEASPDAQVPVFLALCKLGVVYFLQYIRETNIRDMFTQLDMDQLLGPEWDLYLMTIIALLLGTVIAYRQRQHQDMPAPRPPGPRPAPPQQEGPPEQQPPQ
UniProt Q9UPW6: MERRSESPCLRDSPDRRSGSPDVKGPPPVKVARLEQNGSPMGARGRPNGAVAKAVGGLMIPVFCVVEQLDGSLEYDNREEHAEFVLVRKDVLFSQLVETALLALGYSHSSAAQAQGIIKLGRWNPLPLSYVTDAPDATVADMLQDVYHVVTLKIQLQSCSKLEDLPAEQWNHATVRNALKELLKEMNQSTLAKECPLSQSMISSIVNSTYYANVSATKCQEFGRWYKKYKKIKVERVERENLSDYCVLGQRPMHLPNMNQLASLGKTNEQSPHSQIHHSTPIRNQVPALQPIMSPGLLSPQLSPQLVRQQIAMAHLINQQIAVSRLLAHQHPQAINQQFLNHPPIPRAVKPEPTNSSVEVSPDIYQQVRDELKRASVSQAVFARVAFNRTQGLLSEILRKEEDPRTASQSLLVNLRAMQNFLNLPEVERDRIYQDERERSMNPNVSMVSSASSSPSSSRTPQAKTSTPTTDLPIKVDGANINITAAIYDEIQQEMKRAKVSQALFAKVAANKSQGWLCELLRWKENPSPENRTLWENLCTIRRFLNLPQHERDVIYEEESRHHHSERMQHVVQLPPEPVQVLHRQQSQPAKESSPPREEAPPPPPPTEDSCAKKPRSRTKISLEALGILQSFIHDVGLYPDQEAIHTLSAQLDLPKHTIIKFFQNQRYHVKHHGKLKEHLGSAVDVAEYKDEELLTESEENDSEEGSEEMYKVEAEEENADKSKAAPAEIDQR
UniProt Q9NR31: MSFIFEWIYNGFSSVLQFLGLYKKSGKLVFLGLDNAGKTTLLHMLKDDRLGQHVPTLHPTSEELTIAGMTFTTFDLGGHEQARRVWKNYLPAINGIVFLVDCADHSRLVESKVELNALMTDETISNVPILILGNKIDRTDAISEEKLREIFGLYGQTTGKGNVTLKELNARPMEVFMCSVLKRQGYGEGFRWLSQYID

These targets were tested with CC1Cc2ccccc2N1C(=O)C1CCCN(C1)C(=O)CCl (mixture of isomers) [TRIM25 ligand 11 (diastereomer mixture)] (assay: probe-labelled cysteine peptide fold change vs DMSO (competition) (log2 fold change); higher = less target engagement (more negative = stronger competition)). Conditions: 10 µM; THP-1; incubation time: 4 h.
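Also: competitive chemoproteomic profiling in live THP-1 cells with an iodoacetamide desthiobiotin (IA-DTB) probe, comparing probe-labelled peptide intensities in compound-treated cells against DMSO-treated controls.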

Target	probe-labelled cysteine peptide fold change
SDSL_Q96GA7_276_MLVEPACGAALAAIYSGLLR (UniProt Q96GA7)	-0.186
SEC31A_O94979_60_SCATFSSSHR (UniProt O94979)	0.132
SCML2_Q9UQR0_458_FLENFCHSLQCDNLLSSQPFSSSR (UniProt Q9UQR0)	-0.039
SEC24D_O94855_848_VLPVYMNCLLK (UniProt O94855)	-0.0545
SCRIB_Q14160_496_RSEACPCQPDSGSPLPAEEEK (UniProt Q14160)	-0.103
SEC61A1_P61619_13_FLEVIKPFCVILPEIQKPER (UniProt P61619)	-0.104
SEC23A_Q15436_423_ISGAIGPCVSLNSK (UniProt Q15436)	0.0735
SCFD2_Q8WU76_79_AVFVLSCLLK (UniProt Q8WU76)	0.0533
SEC23IP_Q9Y6Y8_678_EKIDMESLLMCTVDDLK (UniProt Q9Y6Y8)	0.113
SEC24C_P53992_635_AAECAGK (UniProt P53992)	-0.00731
SBNO1_A3KN83_1277_VVSDDALMHWLDQYNSSADTCTHAYWR (UniProt A3KN83)	0.0166
SEC24D_O94855_371_AYMCPFMQFIEGGR (UniProt O94855)	-0.0221
SEC24C_P53992_452_FQCCFCSCINDVPPQYFQHLDHTGKR (UniProt P53992)	-0.0532
SEC24D_O94855_390_YQCGFCNCVNDVPPFYFQHLDHIGR (UniProt O94855)	0.193
SDHA_P31040_438+443_HVNGQDQIVPGLYACGEAACASVHGANR (UniProt P31040)	-0.0485
SDCBP_O00560_239_NGLLTEHNICEINGQNVIGLK (UniProt O00560)	0.0202
SDS_P20132_270_ILVEPACGAALAAVYSHVIQK (UniProt P20132)	-0.0749
SART3_Q15020_182_DYICPNIWLEYGQYSVGGIGQK (UniProt Q15020)	0.0675

Target	probe-labelled cysteine peptide fold change
SCLY_Q96I15_316_AAELVTQNCEAYEAHMR (UniProt Q96I15)	0.148
SART3_Q15020_812_LFISGLPFSCTK (UniProt Q15020)	-0.0453
SEC24C_P53992_452_FQCCFCSCINDVPPQYFQHLDHTGK (UniProt P53992)	-0.0454
SEMA4A_Q9H3S1_339_SSAVCAFSLLDIER (UniProt Q9H3S1)	-0.0131
SEL1L_Q9UBV2_127_KPALTAIEGTAHGEPCHFPFLFLDK (UniProt Q9UBV2)	0.095
SEPHS1_P49903_317_ACGNMFGLMHGTCPETSGGLLICLPR (UniProt P49903)	-0.09
SCAF11_Q99590_506_KLENTGIEANVLCLESEISENILEK (UniProt Q99590)	-0.132
SATB2_Q9UPW6_246_ENLSDYCVLGQR (UniProt Q9UPW6)	0.308
SEC23B_Q15437_85_LWACNFCFQR (UniProt Q15437)	0.00976
SART3_Q15020_114_NQLEIERLEEQLSINVYDYNCHVDLIR (UniProt Q15020)	-0.0694
SAR1A_Q9NR31_102_NYLPAINGIVFLVDCADHSR (UniProt Q9NR31)	0.00914
SEC62_Q99442_55_AVDCLLDSK (UniProt Q99442)	-0.122
SDSL_Q96GA7_38_CENVQPSGSFK (UniProt Q96GA7)	-0.0549
SAMM50_Q9Y512_65_TKDDIIICEIGDVFK (UniProt Q9Y512)	-0.0176
SART1_O43290_645_GLAAALLLCQNK (UniProt O43290)	-0.145
SDHA_P31040_475_ACALSIEESCRPGDKVPPIKPNAGEESVMNLDK (UniProt P31040)	-0.0987
SART3_Q15020_780_PMFVSPCVDK (UniProt Q15020)	0.0628

Same assay, conditions: 50 µM; THP-1; incubation time: 4 h

Target	probe-labelled cysteine peptide fold change
SDSL_Q96GA7_276_MLVEPACGAALAAIYSGLLR (UniProt Q96GA7)	0.128
SEC31A_O94979_60_SCATFSSSHR (UniProt O94979)	-0.143
SCML2_Q9UQR0_458_FLENFCHSLQCDNLLSSQPFSSSR (UniProt Q9UQR0)	-0.179
SEC24D_O94855_848_VLPVYMNCLLK (UniProt O94855)	0.0972
SCRIB_Q14160_496_RSEACPCQPDSGSPLPAEEEK (UniProt Q14160)	-0.349
SEC61A1_P61619_13_FLEVIKPFCVILPEIQKPER (UniProt P61619)	-0.189
SEC23A_Q15436_423_ISGAIGPCVSLNSK (UniProt Q15436)	-0.0311
SCFD2_Q8WU76_79_AVFVLSCLLK (UniProt Q8WU76)	0.0933
SEC23IP_Q9Y6Y8_678_EKIDMESLLMCTVDDLK (UniProt Q9Y6Y8)	0.00273
SEC24C_P53992_635_AAECAGK (UniProt P53992)	0.0421
SBNO1_A3KN83_1277_VVSDDALMHWLDQYNSSADTCTHAYWR (UniProt A3KN83)	0.0228
SEC24D_O94855_371_AYMCPFMQFIEGGR (UniProt O94855)	-0.184
SEC24C_P53992_452_FQCCFCSCINDVPPQYFQHLDHTGKR (UniProt P53992)	0.0237
SEC24D_O94855_390_YQCGFCNCVNDVPPFYFQHLDHIGR (UniProt O94855)	0.41
SDHA_P31040_438+443_HVNGQDQIVPGLYACGEAACASVHGANR (UniProt P31040)	-0.385
SDCBP_O00560_239_NGLLTEHNICEINGQNVIGLK (UniProt O00560)	0.0577
SDS_P20132_270_ILVEPACGAALAAVYSHVIQK (UniProt P20132)	-0.128
SART3_Q15020_182_DYICPNIWLEYGQYSVGGIGQK (UniProt Q15020)	0.102

Target	probe-labelled cysteine peptide fold change
SCLY_Q96I15_316_AAELVTQNCEAYEAHMR (UniProt Q96I15)	0.181
SART3_Q15020_812_LFISGLPFSCTK (UniProt Q15020)	-0.125
SEC24C_P53992_452_FQCCFCSCINDVPPQYFQHLDHTGK (UniProt P53992)	-0.381
SEMA4A_Q9H3S1_339_SSAVCAFSLLDIER (UniProt Q9H3S1)	-0.0829
SEL1L_Q9UBV2_127_KPALTAIEGTAHGEPCHFPFLFLDK (UniProt Q9UBV2)	0.19
SEPHS1_P49903_317_ACGNMFGLMHGTCPETSGGLLICLPR (UniProt P49903)	-0.258
SCAF11_Q99590_506_KLENTGIEANVLCLESEISENILEK (UniProt Q99590)	-0.338
SATB2_Q9UPW6_246_ENLSDYCVLGQR (UniProt Q9UPW6)	0.0945
SEC23B_Q15437_85_LWACNFCFQR (UniProt Q15437)	-0.0607
SART3_Q15020_114_NQLEIERLEEQLSINVYDYNCHVDLIR (UniProt Q15020)	0.123
SAR1A_Q9NR31_102_NYLPAINGIVFLVDCADHSR (UniProt Q9NR31)	-0.0176
SEC62_Q99442_55_AVDCLLDSK (UniProt Q99442)	-0.249
SDSL_Q96GA7_38_CENVQPSGSFK (UniProt Q96GA7)	-0.15
SAMM50_Q9Y512_65_TKDDIIICEIGDVFK (UniProt Q9Y512)	0.105
SART1_O43290_645_GLAAALLLCQNK (UniProt O43290)	-0.179
SDHA_P31040_475_ACALSIEESCRPGDKVPPIKPNAGEESVMNLDK (UniProt P31040)	-0.0334
SART3_Q15020_780_PMFVSPCVDK (UniProt Q15020)	-0.0727
